Experimental data from publication PMC3899003.

Columns and labels:
[1] = target: T1, manganese superoxide dismutase (rat (endogenous in neonatal Sprague-Dawley rat cardiomyocytes)) (UniProt P07895); test: co-IP; anti-MnSOD antibody on Sepharose beads, overnight at 4°C, immunocomplex blotted for p38β; lysates of rat cardiomyocytes treated as indicated (H/R, E2)
T1 sequence: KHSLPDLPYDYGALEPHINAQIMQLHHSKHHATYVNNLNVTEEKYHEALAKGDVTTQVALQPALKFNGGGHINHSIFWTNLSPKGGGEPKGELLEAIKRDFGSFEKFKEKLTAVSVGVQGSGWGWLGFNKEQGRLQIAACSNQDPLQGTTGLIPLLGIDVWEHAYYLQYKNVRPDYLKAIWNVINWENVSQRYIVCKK

[2] = target: p38β mitogen activated protein kinase (rat (endogenous in neonatal Sprague-Dawley rat cardiomyocytes)); test: co-IP; anti-p38β antibody on Sepharose beads, immunocomplex blotted for MnSOD; lysate of rat cardiomyocytes after H/R without E2
[3] = target: p38β mitogen activated protein kinase (rat (endogenous in neonatal Sprague-Dawley rat cardiomyocytes)); test: co-IP; anti-p38β antibody on Sepharose beads, immunocomplex blotted for MnSOD; lysate of rat cardiomyocytes at normoxia (baseline)
[4] = target: p38β mitogen activated protein kinase (rat (endogenous in neonatal Sprague-Dawley rat cardiomyocytes)); test: co-IP; anti-p38β antibody on Sepharose beads, overnight at 4°C, immunocomplex blotted for MnSOD; lysate of rat cardiomyocytes after H/R with E2 at 10 nM; lysis buffer 50 mM Tris HCl pH 7.5, 100 mM NaCl, 5 mM EDTA, 1% Triton X-100

binding [1]: binds
Molecule: p38β mitogen activated protein kinase (enzyme)

binding [2]: binds weakly
binding [3]: binds weakly
binding [4]: binds
B1: manganese superoxide dismutase (enzyme, UniProt P07895 25-222)
chain: T1 sequence

Results are given in words; binding and its absence hold for the method and conditions named. Binding seen in cells or lysates may run through a third protein. A result given as binding can be weak or reduced; the word gives no strength. One block for each molecule: values may come before it.
